These are yes or no findings as the source states them, for the method shown. In cells and extracts the contact can be indirect. Some results given as binding are weak or reduced against the parent protein; the word gives no strength.

The chains behind the UniProt entries cited, without tags or fusion partners.
UniProt Q61221: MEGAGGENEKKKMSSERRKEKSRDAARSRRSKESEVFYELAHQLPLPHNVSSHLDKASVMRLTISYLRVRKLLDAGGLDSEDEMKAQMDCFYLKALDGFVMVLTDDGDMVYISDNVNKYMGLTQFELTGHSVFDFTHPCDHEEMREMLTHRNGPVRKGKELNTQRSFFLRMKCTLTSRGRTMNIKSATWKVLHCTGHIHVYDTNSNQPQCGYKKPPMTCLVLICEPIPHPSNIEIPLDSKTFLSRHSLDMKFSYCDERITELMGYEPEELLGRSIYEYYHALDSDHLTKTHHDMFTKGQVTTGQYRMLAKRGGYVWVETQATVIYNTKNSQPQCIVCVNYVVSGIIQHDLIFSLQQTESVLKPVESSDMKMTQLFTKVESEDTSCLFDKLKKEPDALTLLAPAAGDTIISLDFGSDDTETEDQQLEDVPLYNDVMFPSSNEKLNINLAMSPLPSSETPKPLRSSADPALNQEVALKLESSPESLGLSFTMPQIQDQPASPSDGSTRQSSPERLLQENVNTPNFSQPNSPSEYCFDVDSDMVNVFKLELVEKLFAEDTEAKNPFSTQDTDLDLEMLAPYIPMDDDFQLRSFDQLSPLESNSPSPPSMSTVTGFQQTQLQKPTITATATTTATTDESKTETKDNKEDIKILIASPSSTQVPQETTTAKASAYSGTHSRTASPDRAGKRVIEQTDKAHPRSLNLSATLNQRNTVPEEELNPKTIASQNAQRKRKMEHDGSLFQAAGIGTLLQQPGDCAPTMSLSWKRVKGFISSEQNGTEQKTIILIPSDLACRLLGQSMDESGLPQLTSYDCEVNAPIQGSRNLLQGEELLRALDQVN
UniProt P02340: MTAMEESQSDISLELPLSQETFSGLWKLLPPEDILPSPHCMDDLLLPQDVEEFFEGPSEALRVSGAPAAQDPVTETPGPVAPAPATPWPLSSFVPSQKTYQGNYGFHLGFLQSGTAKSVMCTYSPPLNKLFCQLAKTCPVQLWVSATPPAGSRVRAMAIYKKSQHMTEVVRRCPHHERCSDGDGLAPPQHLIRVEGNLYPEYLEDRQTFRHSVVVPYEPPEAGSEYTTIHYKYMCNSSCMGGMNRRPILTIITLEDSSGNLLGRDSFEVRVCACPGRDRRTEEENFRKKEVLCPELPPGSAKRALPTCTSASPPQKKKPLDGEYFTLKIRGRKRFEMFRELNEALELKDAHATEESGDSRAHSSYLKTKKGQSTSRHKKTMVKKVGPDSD

The values below come from publication PMC11876171.

This assay concerns the target hypoxia-inducible factor-1α (mouse (endogenous in SV40 MES 13)) (UniProt Q61221). Kind of assay: co-IP; anti-HIF-1α antibody (2 μg for 1 mg total protein) added to NP-40 lysates of mesangial cells of each group overnight at 4°C, magnetic beads 1 h at room temperature; Western blot for p53. On the technique in general: In western blotting, separated proteins are transferred to a membrane and probed.

For the substance p53 (from UniProt P02340 1-390), the binding entry is recorded as “binds”.
